Results as given in publication PMC7359024, “Synthesis, Structure–Activity Relationship, and Mechanistic Studies of Aminoquinazolinones Displaying Antimycobacterial Activity” (ACS Infectious Diseases, 2020).

test system: Chinese Hamster Ovarian (CHO) cell lines; details: not given

Compound	SI (safety index)
CS(=O)(=O)c1cccc(-c2ccc3nc(N)n(-c4ccc(C(F)(F)F)cc4)c(=O)c3c2)c1 [compound 1, 2-Amino-6-(3-(methylsulfonyl)phenyl)-3-(4-(trifluoromethyl)phenyl)quinazolin-4(3H)-one]	>100 (>400x)

same assay, conditions: CHO IC50 versus MIC90 GASTE-Fe

Compound	SI (safety index) [x]
C[S+]([O-])c1cccc(-c2ccc3nc(N)n(-c4ccc(C(F)(F)F)cc4)c(=O)c3c2)c1 (stereo not shown) [compound 2, 2-Amino-6-(3-(methylsulfinyl)phenyl)-3-(4-(trifluoromethyl)phenyl)quinazolin-4(3H)-one]	> 156
Cc1ccc(S(C)(=O)=O)cc1-c1ccc2nc(N)n(-c3ccc(C(F)(F)F)cc3)c(=O)c2c1 [compound 7]	> 24
Nc1nc2ccc(-c3cccc(S(=O)(=O)C4CC4)c3)cc2c(=O)n1-c1ccc(C(F)(F)F)cc1 [compound 8]	0.01
NC(=O)c1cccc(-c2ccc3nc(N)n(-c4ccc(C(F)(F)F)cc4)c(=O)c3c2)c1 [compound 9]	> 400
CN(C)C(=O)c1cccc(-c2ccc3nc(N)n(-c4ccc(C(F)(F)F)cc4)c(=O)c3c2)c1 [compound 10]	0.3
CNC(=O)c1cccc(-c2ccc3nc(N)n(-c4ccc(C(F)(F)F)cc4)c(=O)c3c2)c1 [compound 11]	123
CN(C)CCNC(=O)c1cccc(-c2ccc3nc(N)n(-c4ccc(C(F)(F)F)cc4)c(=O)c3c2)c1 [compound 13]	> 61
Nc1nc2ccc(-c3cccc(C(=O)NCCO)c3)cc2c(=O)n1-c1ccc(C(F)(F)F)cc1 [compound 14]	> 49
Nc1nc2ccc(-c3cccc(C(=O)NCCN4CCOCC4)c3)cc2c(=O)n1-c1ccc(C(F)(F)F)cc1 [compound 15, 3-(2-amino-4-oxo-3-(4-(trifluoromethyl)phenyl)-3,4-dihydroquinazolin-6-yl)-N-(2-morpholinoethyl)benzamide]	6
Nc1nc2ccc(-c3cccc(C(=O)N4CCSCC4)c3)cc2c(=O)n1-c1ccc(C(F)(F)F)cc1 [compound 18, 2-Amino-6-(3-(thiomorpholine-4-carbonyl)phenyl)-3-(4-(trifluoromethyl)phenyl)quinazolin-4(3H)-one]	> 76
CN1CCN(C(=O)c2cccc(-c3ccc4nc(N)n(-c5ccc(C(F)(F)F)cc5)c(=O)c4c3)c2)CC1 [compound 19]	32
Nc1nc2ccc(-c3cccc(C(=O)O)c3)cc2c(=O)n1-c1ccc(C(F)(F)F)cc1 [compound 20]	1
Nc1nc2ccc(-c3cccnc3)cc2c(=O)n1-c1ccc(C(F)(F)F)cc1 [compound 22]	> 160
CS(=O)(=O)c1cccc(-c2ccc3c(=O)n(-c4ccc(C(F)(F)F)cc4)c(N)nc3c2)c1 [compound 30]	> 36
C[S+]([O-])c1cccc(-c2ccc3c(=O)n(-c4ccc(C(F)(F)F)cc4)c(N)nc3c2)c1 (stereo not shown) [compound 31]	> 38
Nc1nc2cc(-c3cccc(C(F)(F)F)c3)ccc2c(=O)n1-c1ccc(C(F)(F)F)cc1 [compound 32]	> 63
CNc1nc2ccc(-c3cccc([S+](C)[O-])c3)cc2c(=O)n1-c1ccc(C(F)(F)F)cc1 (stereo not shown) [compound 40, 2-(Methylamino)-6-(3-(methylsulfinyl)phenyl)-3-(4-(trifluoromethyl)phenyl)quinazolin-4(3H)-one]	> 36
CNc1nc2ccc(-c3cccc(S(C)(=O)=O)c3)cc2c(=O)n1-c1ccc(C(F)(F)F)cc1 [compound 41, 2-(Methylamino)-6-(3-(methylsulfonyl)phenyl)-3-(4-(trifluoromethyl)phenyl)quinazolin-4(3H)-one]	> 0.4
